Data published in PubChem BioAssay AID2685 (National Center for Advancing Translational Sciences (NCATS), 2010).
Among all 320,000 compounds or so, about 2,100 (0.66%) were called active. Inconclusive results, whose numbers are uncertain, are shown with a selection of clear calls. Calls follow the shape of the dose curve; as a rule, active = well fitted inhibition curve with a large enough effect in the signal ratio, with a control signal flat (not every such curve was filed as active); inconclusive = small, poorly fitted or top-dose-only effect, or effect the other way, or a change in a side signal; inactive = flat fitted curve, though single readings scatter; the % refers to the signal ratio. Potencies beside an inconclusive call are fits to weak or partial responses and may not hold up.

Assay: qHTS Assay for Lipid Storage Modulators in Drosophila S3 Cells
Conditions: BODIPY lipid droplet fluorescence, 18-24 h, cells fed with added oleic acid; lipid storage change, negative = inhibition: at 46.1 µM (top of the series) unless noted
In short: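 Laser-scanning cytometry quantifies lipid droplet accumulation (500–530 nm total intensity; droplet/cell object ratio) in oleic acid-fed (400 uM added) Drosophila S3 cells treated with a concentration series. 20 uM Triacsin C defined 100% inhibition.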
% is scaled to controls: 0 for no effect and ±100 for the full control effect; potency is read from the fitted curve at half-maximal effect.

| SMILES | lipid storage change, negative = inhibition | Potency |
| --- | --- | --- |
| CC(OC(=O)c1cc[n+]([O-])cc1)C(=O)Nc1ccc(C(N)=O)cc1 (configuration not stated) | inconclusive: 24.8% | – |
| Cn1c(Cc2cccs2)nnc1SCC(=O)Nc1ccccc1F | inconclusive | – |
| COc1ccc(CC(=O)Nc2ccc3nc(SC)sc3c2)cc1OC | inconclusive: 29.9% | – |
| NC(=O)Nn1c(CCC(=O)O)ccc1-c1ccc(F)cc1 | inconclusive: 8.64% | – |
| Cc1ccc(S(=O)(=O)N2c3ccccc3OCC2c2ccccc2)cc1 (configuration not stated) | – | inconclusive: 18.4 µM [cytotoxic, single point] |
| COC(=O)c1cccc(NC(=S)NCc2ccc(Cl)cc2)c1 | inconclusive: 52.3% | – |
| NC(=O)[C@@H]1CCCN1C(=O)c1cc(COc2ccc(F)cc2F)on1 | inconclusive: 22.8% | – |
| CC1(C)Cc2c(sc(NC(=O)C(=O)N3CCCC3)c2C(N)=O)CO1 | – | inconclusive: 2.06 µM [falling, partial curve, poor fit] |
| COc1ccccc1N1CCN(C(=O)CSc2nnc(NC(=O)C(C)C)s2)CC1 | inconclusive: -20.9% | – |
| Cc1ccc(C)c(OCCn2nnc3ccccc32)c1 | – | inconclusive: 6.51 µM [falling, single point] |
| CC(C)C(c1nnnn1Cc1ccc(F)cc1)N1CCN(C(=O)c2ccco2)CC1 (configuration not stated) | – | inconclusive: 0.651 µM [falling, full curve] |
| CC(C)(C)C(=O)Nc1ccc(C(=O)N/N=C/c2ccccc2OC(=O)c2ccccc2)cc1 | – | inconclusive: 23.1 µM [falling, single point] |
| Cc1ccc(S(=O)(=O)N2CCC(C(=O)N3CCC(C(=O)NCC4CCCO4)CC3)CC2)cc1 (configuration not stated) | – | inconclusive: 3.26 µM [falling, single point] |
| CCCCN(C(=O)COC(=O)c1ccc(C=O)cc1)c1c(N)n(CCC)c(=O)[nH]c1=O | – | inconclusive: 29.1 µM [activator, single point] |
| Cn1c(CNC(=O)CNC(=O)c2cccc(Cl)c2)cc(=O)n(C)c1=O | inconclusive: 9.6% | – |
| CCOC(=O)c1c(C)[nH]c(C(=O)OCC(=O)Nc2ccccc2)c1C | – | inconclusive: 29.1 µM [falling, single point] |
| CCCCCOC(=O)c1[nH]c2c(c1C)C(=O)CC(c1ccco1)C2 (configuration not stated) | – | inconclusive: 0.58 µM [activator, full curve, poor fit] |
| O=c1[nH][nH]c2nc(C(F)(F)F)cc(C(F)(F)F)c12 | inconclusive: 12.8% | – |
| CCN(CC(=O)Nc1ccc(NC(C)=O)cc1)C(=O)c1ccc2c(c1)OCCO2 | inconclusive: 14.3% | – |
| Cn1c(SCCCC(=O)c2ccccc2)nnc1-c1ccncc1 | inconclusive: -3.76% | – |
| O=C(CCN1C(=O)c2ccccc2C1=O)NCc1ccco1 | – | inconclusive: 8.2 µM [falling, partial curve] |
| COC(=O)c1ccc(NC(=O)CCN2CCN(c3ccccc3)CC2)cc1 | inconclusive: 6.92% | – |
| FC(F)(F)c1cnc(N2CCC(=NOCc3ccc(Cl)cc3)CC2)c(Cl)c1 | inconclusive: -20.9% | – |
| Cc1cc(=O)[nH]c(N/N=C/c2c(C)nn(-c3ccccc3)c2Cl)n1 | – | inconclusive: 25.9 µM [falling, single point] |

| SMILES | lipid storage change, negative = inhibition | Potency |
| --- | --- | --- |
| CN(C)S(=O)(=O)c1cc(C(=O)Nc2ccccc2C(=O)NC2CC2)ccc1Cl | – | inconclusive: 0.58 µM [falling, single point] |
| O=C(c1cccc(NS(=O)(=O)c2ccc(F)cc2)c1)N1CCN(c2ccccc2)CC1 | inconclusive | – |
| COc1ccc(C(=O)NCCn2cc(SCC(=O)NCC3CCCO3)c3ccccc32)cc1 (configuration not stated) | – | inconclusive: 7.31 µM [falling, partial curve, poor fit] |
| Cc1cc(CN(C)C(=O)CC2C(=O)NCCN2Cc2ccc(F)c(F)c2)on1 (configuration not stated) | inconclusive: 26.6% | – |
| COc1ccc(S(=O)(=O)N2CCCC2)c(Cl)c1Cl | inconclusive: -44.9% | – |
| CCOC(=O)C1CCCN(Cc2ccccc2F)C1 (configuration not stated) | inconclusive: 8.39% | – |
| Cc1ccc(C(=O)Nc2sc3c(c2C(=O)NCc2ccco2)CCCC3)cc1 | inconclusive: 480% | – |
| Cc1ccnc(N/C=C(/NC(=O)c2ccccc2)C(=O)NN)n1 | – | inconclusive: 0.0366 µM [activator, full curve, poor fit] |
| Cc1ccc(C(=O)C2CCN(CC(=O)NCc3ccc(F)cc3)CC2)cc1 | inconclusive: 61.1% | – |
| O=C(CNS(=O)(=O)c1ccc(Br)cc1Cl)OCC(=O)N1CCCC1=O | inconclusive: 14.5% | – |
| CC/C(=N\NC(=O)c1nnn(-c2nonc2N)c1-c1cccc(OC)c1)c1ccc(C)cc1 | inconclusive: 28.3% | – |
| NC(=O)CSc1nnc(CSc2ncccn2)n1-c1ccccc1 | inconclusive: -14.2% | – |
| COc1ccc(N(CC(=O)NC2CC3CCC2C3)S(=O)(=O)c2ccccc2)cc1Cl (configuration not stated) | inconclusive: -50.5% | – |
| CC(C)(NC(=O)NC(CO)c1ccccc1)c1cccc(C(C)(C)NC(=O)NC(CO)c2ccccc2)c1 (configuration not stated) | inconclusive: 9.84% | – |
| Cc1cccc(N(C)Cc2nnc(-c3cccc(Br)c3)o2)c1 | – | inconclusive: 23.1 µM [falling, single point] |
| CCN(CC(=O)Nc1ccc(OC)cc1)C(=O)c1cc2c(s1)CCCCC2 | – | inconclusive: 0.366 µM [activator, full curve, poor fit] |
| O=C(CCc1ccccn1)N1CCCC(N2CCN(c3ccc(F)cc3)CC2)C1 (configuration not stated) | inconclusive: 47.6% | – |
| O=C(O)C(Cc1ccc(O)cc1)N1C(=O)c2ccccc2C1=O (configuration not stated) | inconclusive: -9.49% | – |
| CC(c1ccccc1)N1C(=O)c2ccccc2C1(O)Cc1ccccc1 (configuration not stated) | inconclusive: -19.1% | – |
| Cc1nc(NC(=O)c2cncc(Br)c2)ccc1Br | inconclusive: -34.5% | – |
| Cc1ccc(NCCC(=O)c2cccs2)cc1 | – | inconclusive: 16.4 µM [activator, single point] |
| CCOC(=O)C(=CNc1ccc(NC2=NCC(C)S2)cc1)C(=O)OCC (configuration not stated) | – | inconclusive: 18.4 µM [rising, single point] |
| O=C(NC(=S)Nc1cccc2ncccc12)c1cccs1 | inconclusive: 0.469% [at 9.22 µM] | – |
| CCCn1c(SCC(=O)Nc2c(C)cccc2C)nnc1C(C)C | – | inconclusive: 0.0046 µM [falling, full curve, poor fit] |

| SMILES | lipid storage change, negative = inhibition | Potency |
| --- | --- | --- |
| COc1ccc(CNC(=O)c2sc(=S)n(-c3ccccc3)c2N)cc1 | – | inconclusive: 1.16 µM [activator, full curve, poor fit] |
| O=C(CCS(=O)(=O)c1ccccc1)Nc1nncs1 | – | inconclusive: 0.58 µM [falling, single point] |
| COc1ccc(C(=O)NCC(c2ccco2)N(C)C)cc1S(=O)(=O)NCc1ccc(Cl)cc1 (configuration not stated) | – | inconclusive: 1.3 µM [activator, full curve, poor fit] |
| O=c1[nH]c(/C=C/c2ccc(Cl)cc2Cl)c([N+](=O)[O-])c(=O)[nH]1 | inconclusive: 30% | – |
| CN(C(=O)c1ccc(Br)cc1)C1CCS(=O)(=O)C1 (configuration not stated) | inconclusive: 11.9% | – |
| Cc1ccccc1-c1nc(CS(=O)(=O)CC(=O)NCc2ccc(F)cc2)c(C)o1 | inconclusive: -51.2% | – |
| Cc1cc(C)c(S(=O)(=O)N(C)CC(=O)NCc2ccccn2)c(C)c1 | inconclusive: 19.4% | – |
| COc1ccccc1NC(=O)c1sc2ncn(Cc3cccc4ccccc34)c(=O)c2c1C | inconclusive: 25.9% | – |
| O=C(Nc1nc2ccccc2[nH]1)c1cccc(Br)c1 | – | inconclusive: 6.51 µM [activator, single point] |
| O=C(COc1cccc(Br)c1)N/N=C/C(=O)c1ccccc1 | inconclusive: 0.596% | – |
| Cc1cccc(-c2onc3ccc(C4(C)OCCO4)cc23)c1 | – | inconclusive: 6.51 µM [activator, single point] |
| COc1ccc(O[C@H]2C=C[C@@H](c3ccccc3)O[C@@H]2COC(=O)CCC(C)=NO[C@@H]2O[C@H](COC(C)=O)[C@@H](OC(C)=O)[C@H](OC(C)=O)[C@H]2OC(C)=O)cc1 | inconclusive: 22.1% | – |
| C[C@]12C(=O)N(c3ccccc3)C(=O)N1[C@@H]1c3ccccc3OC[C@@H]1[C@H]2c1ccccc1 | – | inconclusive: 16.4 µM [activator, single point] |
| O=C(c1cc(-c2ccc(F)cc2)on1)N1CCCCCC1 | – | inconclusive: 0.13 µM [falling, full curve, poor fit] |
| O=C(O)/C=C\C(=O)Nc1ccccc1N1CCN(c2ccccc2)CC1 | – | inconclusive: 29.1 µM [activator, single point] |
| COc1ccc(NS(=O)(=O)c2ccc(NC(=S)NC(=O)C(C)C)cc2)cc1 | inconclusive: 36.2% | – |
| COc1ccc(/C=N\NC(=O)COc2ccc(Cl)cc2Cl)c(C(=O)O)c1OC | inactive | – |
| O=C(O)CCCn1cc(NC(=O)COc2cc(F)ccc2[N+](=O)[O-])cn1 | inconclusive: -23.8% | – |
| Cc1noc(C)c1C(=O)N1CCN(c2ncccn2)CC1 | inconclusive: -2.47% | – |
| O=C(OCc1nc2scc(-c3ccccc3)c2c(=O)[nH]1)c1cc(Cl)ccc1[N+](=O)[O-] | – | inconclusive: 7.31 µM [activator, partial curve] |
| Cc1ccccc1OCC(=O)N/N=C/c1ccc(N(C)C)cc1 | inconclusive: 3.51% | – |
| CC(C)NC(=O)NC(=O)COC(=O)C1CCCN1C(=O)c1cccs1 (configuration not stated) | – | inconclusive: 0.291 µM [falling, full curve, poor fit] |
| O=C(c1ccccc1)c1cc2ccccc2o1 | inconclusive: 33.7% | – |
| O=C(NCC(c1ccco1)N1CCc2ccccc2C1)c1ccc(Cl)c([N+](=O)[O-])c1 (configuration not stated) | inconclusive: 17.9% | – |

3 compounds drawn at random from the list so far:

| SMILES | lipid storage change, negative = inhibition | Potency |
| --- | --- | --- |
| O=C(CNS(=O)(=O)c1ccc(Br)cc1Cl)OCC(=O)N1CCCC1=O | inconclusive: 14.5% | – |
| Cc1ccc(S(=O)(=O)N2c3ccccc3OCC2c2ccccc2)cc1 (configuration not stated) | – | inconclusive: 18.4 µM [cytotoxic, single point] |
| O=C(NCC(c1ccco1)N1CCc2ccccc2C1)c1ccc(Cl)c([N+](=O)[O-])c1 (configuration not stated) | inconclusive: 17.9% | – |
